# Results of single-concentration screens

Measurements from “University of Dundee, Small-Polar-MMV Screening Library” (2021), ChEMBL document CHEMBL3988442.

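Growth of Mycobacterium tuberculosis over 4 days (cholesterol / DPPC medium with tyloxapol); the read-out is not stated. Concentration: 500 µM. The record gives no direction; compounds that gave an IC50 in retests scored well above the rest, so higher reads as more growth inhibition. Of about 18,000 compounds tested this way, about 900 (5%) reached 50% or more in at least one test.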

The filed quantity is “Percent Effect” (%). The record does not define 0% and 100%; most values in the screen are far below 50% and negative numbers occur (in some assays of this library far below -100). The compounds are a random part of those screened.

| Compound | percent effect |
|---|---|
| `O=C(Cc1cccc(O)c1)N1CCc2cnccc21` | 15.08 |
| `COc1ccc(CCN)c(Cl)c1OC` | 16.2 |
| `CN(C)c1ccc(C(=O)NCc2ccccc2F)cn1` | 12.96 |
| `CC1Oc2ccccc2C(=O)N(C)C1=O` (centres unmarked) | 3.204 |
| `CN(CCc1ccccc1)CCS(=O)(=O)CCC(N)=O` | 73.96 |
| `O=C(NC1CCCCC1)NC1CCNCC1` | -11.1 |
| `CCNc1ncc(C(=O)NCCN2CCOC2=O)cn1` | -12.88 |
| `COCC(N)c1ccccc1` (centres unmarked) | -4.621 |
| `CCN(Cc1ccc(Cl)s1)C(=O)c1ccc(=O)n(C)n1` | -18.69 |
| `CCNC(=O)N(C)Cc1cccnc1OCC` | -5.941 |
| `CCc1ncc(C(=O)NCCNc2ncccn2)s1` | -20.89 |
| `CNC(=O)N1CCCCCC1c1ccncc1` (centres unmarked) | -8.024 |
| `CN(Cc1ccccc1Br)C(=O)c1nccnc1N` | 33.17 |
| `CCC(C)(CCO)NC(=O)c1ccc[nH]1` (centres unmarked) | 5.16 |
| `CCN1CCC(c2nc(C3CCOC3)no2)CC1` (centres unmarked) | 5.489 |
| `Nc1[nH]nc(C(=O)N2CCOC3(CCCC3)C2)c1Cl` | -0.1714 |
| `CSCCC(O)C(=O)NCCn1c(C)cc(C)nc1=O` (centres unmarked) | -174.8 |
| `Cn1cc(NC(=O)NCC2(O)CCCCC2)cn1` | -2.539 |
| `OC(c1cc(F)ccc1F)C1CCNCC1` (centres unmarked) | 10.49 |
| `CC1NCCCNC1=O` (centres unmarked) | -1.944 |
| `CCN1CCN(C(C)c2nc(C)no2)CC1` (centres unmarked) | 6.815 |
| `COc1ccc(OCCSCC(=O)NCCC#N)cc1` | 86.24 |
| `Cc1nc(-n2cccc2)sc1CO` | 36.54 |
| `O=C(Cc1cccc(O)c1)NCCCn1cncn1` | -3.624 |
| `CC(O)C(C)(C)NC(=O)c1cn2cccnc2n1` (centres unmarked) | -6.141 |
| `CC(CCCO)NS(=O)(=O)c1ccccc1` (centres unmarked) | 14.43 |
| `O=C(NCCn1cccc1)c1[nH]nc2c1CCCC2` | 53.15 |
| `CCCC(C)NC(=O)NCc1ccn(C)c1` (centres unmarked) | -4.321 |
| `O=C(NCCSc1ccccn1)C1CCCCO1` (centres unmarked) | 36.59 |
| `COc1ccc(NCC(=O)N2CCNC2=O)cc1Cl` | -11.22 |
| `Cc1noc(C(=O)NCCN2CCOCC2)c1Cl` | -19.05 |
| `Cc1noc(C)c1CNC1=NS(=O)(=O)c2ccccc21` | -168.3 |
| `Cc1c(Br)c(C(=O)N2CCN3CCCC3C2)nn1C` (centres unmarked) | 26.56 |
| `c1cc(CNCCn2cccn2)c2c(c1)OCCO2` | 18.67 |
| `Cc1ccc(-n2cc(N)nn2)cc1` | 6.078 |
| `CC1COC2(CCN(c3ccncc3Cl)CC2)O1` (centres unmarked) | 14.44 |
| `Cc1nnc2n1CCC(NC(=O)c1cnccn1)CC2` (centres unmarked) | -16.2 |
| `COc1ccc(Cl)cc1-n1c(CCN)n[nH]c1=O` | -0.99 |
| `NC(=O)N(Cc1cccs1)CC1CCCO1` (centres unmarked) | 3.517 |
| `COc1ccc(C(=O)NC2(C#N)CCOCC2)cc1Br` | 6.3 |
| `COCCn1ccnc1CN1CC[C@](C)(O)C(C)(C)C1` | 3.336 |
| `Cc1nc(CCN2CCc3c(c(CO)nn3C)C2)cs1` | -1.832 |
| `Cc1ccc2[nH]c(C(=O)N3CCN(C)CC3)cc2c1` | 67.55 |
| `CC(C)(CNC(=O)CC1=CCCCC1)S(C)(=O)=O` | -0.25 |
| `CCOC(CN)CN` | -10.9 |
| `COCCn1ccnc1CN(C)Cc1nnc(C)o1` | 8.908 |
| `Cc1nnc(CCNC(=O)C(O)CC(C)C)s1` (centres unmarked) | -0.3328 |
| `CSCc1ccc(N2CCC(CNC(C)=O)CC2)nc1` | 11.94 |
| `CS(=O)(=O)NCCSCC(O)c1ccccc1` (centres unmarked) | -6.217 |
| `CCNC(=O)CNc1nc(-c2ccccc2)cs1` | 19.31 |
| `N#CCC(=O)Nc1ccc(N2CCOCC2)cc1` | -11 |
| `N#CC1(C(=O)N2CCc3sccc3C2)CCCC1` | 80.87 |
| `Cc1cc(N2CCNC(=O)C2)ccc1CN` | 2.235 |

Once more, the final 4:

Compound,percent effect
CCNC(=O)CNc1nc(-c2ccccc2)cs1,19.31
N#CCC(=O)Nc1ccc(N2CCOCC2)cc1,-11
N#CC1(C(=O)N2CCc3sccc3C2)CCCC1,80.87
Cc1cc(N2CCNC(=O)C2)ccc1CN,2.235